In patent US11773093B1, “N-(pyrimido[2,3-b]indol-7-yl)acetamide compounds as antibacterial agents” (KING FAISAL UNIVERSITY, priority 2023, dated 2023) one finds MIC data, which are given here for one compound.

The structures appear in SMILES notation. ≈ marks a conversion by molar mass, not a printed value.

Broadly, the MIC is the lowest concentration that inhibits growth of the organism. Low readings indicate inhibition by little substance, high ones a need for much substance.

What all share (assay): In vitro antibacterial activity (MIC, CLSI M07-A10 dilution)
Common to all, as to assay type: cell-based

For test [1], the system named is Escherichia coli MTCC 443. To be noted: MTCC443.
Test [2] concerns Staphylococcus epidermidis.
Test [3] concerns Staphylococcus aureus ATCC BAA-1556 (MERSA resistant). As to conditions: ATCCBAA1556.
The test system of test [4] is Staphylococcus aureus ATCC 29213. As to conditions: ATCC29213.

Regarding `CN[C@H](CC(C)C)C(=O)N[C@H]1C(=O)N[C@@H](CC(N)=O)C(=O)N[C@H]2C(=O)N[C@H]3C(=O)N[C@H](C(=O)N[C@H](C(=O)O)c4cc(O)cc(O)c4-c4cc3ccc4O)[C@H](O)c3ccc(c(Cl)c3)Oc3cc2cc(c3O[C@@H]2O[C@H](CO)[C@@H](O)[C@H](O)[C@H]2O[C@H]2C[C@](C)(N)[C@H](O)[C@H](C)O2)Oc2ccc(cc2Cl)[C@H]1O` [Vancomycin, reference compound], the MIC in test [1] was over 128 µg/mL; in test [2], 1 µg/mL (≈ 0.69 µM); in test [3], 1 µg/mL (≈ 0.69 µM); in test [4], 1 µg/mL (≈ 0.69 µM).
